In patent US20150024955A1, “Methods of Identifying Modulators of Dephosphorylation of Histone Deacetylase” (THE J. DAVID GLADSTONE INSTITUTES, priority 2006, published 2015):
No constants are given. Whether binding was seen depends on the method and setting. Binding seen in cells or lysates may run through a third protein. A yes stands for co-enrichment or nearness to the bait. Other partners may have been found. Where a sequence is shown, tags or fusion partners need not be part of it.

T1: FLAG-tagged human HDAC7 (human) (UniProt Q8WUI4)
T1 sequence (looked up): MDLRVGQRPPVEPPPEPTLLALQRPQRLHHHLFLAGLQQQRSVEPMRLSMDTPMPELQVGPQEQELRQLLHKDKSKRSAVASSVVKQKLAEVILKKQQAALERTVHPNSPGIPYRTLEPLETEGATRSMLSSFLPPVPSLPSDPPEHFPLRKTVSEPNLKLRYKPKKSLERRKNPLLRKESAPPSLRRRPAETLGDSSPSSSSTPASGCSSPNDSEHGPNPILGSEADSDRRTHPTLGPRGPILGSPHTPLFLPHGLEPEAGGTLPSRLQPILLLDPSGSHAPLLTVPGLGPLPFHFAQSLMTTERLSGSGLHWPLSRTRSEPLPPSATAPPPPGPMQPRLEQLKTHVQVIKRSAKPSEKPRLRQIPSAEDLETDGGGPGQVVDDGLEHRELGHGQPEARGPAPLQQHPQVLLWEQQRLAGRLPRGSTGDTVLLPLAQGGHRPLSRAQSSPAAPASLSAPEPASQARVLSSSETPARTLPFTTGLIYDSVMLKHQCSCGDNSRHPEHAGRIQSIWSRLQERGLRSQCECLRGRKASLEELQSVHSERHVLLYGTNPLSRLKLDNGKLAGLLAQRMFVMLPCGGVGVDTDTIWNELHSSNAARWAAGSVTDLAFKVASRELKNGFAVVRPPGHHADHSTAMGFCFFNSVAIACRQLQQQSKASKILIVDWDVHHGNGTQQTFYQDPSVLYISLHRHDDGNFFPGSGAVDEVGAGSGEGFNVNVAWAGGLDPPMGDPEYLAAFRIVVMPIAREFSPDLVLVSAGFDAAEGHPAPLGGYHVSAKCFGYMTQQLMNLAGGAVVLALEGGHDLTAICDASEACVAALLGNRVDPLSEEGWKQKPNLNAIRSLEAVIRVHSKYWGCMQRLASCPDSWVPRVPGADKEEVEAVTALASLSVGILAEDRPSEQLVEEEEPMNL


Assays:
[1] = biological target: T1, FLAG-tagged human HDAC7 (human); test: immunoprecipitation and mass spectrometry
[2] = biological target: T1, FLAG-tagged human HDAC7 (human); test: anti-FLAG immunoprecipitation from DO11.10-HDAC7-Flag cells, SDS-PAGE, mass spectrometry
[3] = biological target: T1, FLAG-tagged human HDAC7 (human); test: anti-FLAG M2 immunoprecipitation from DO11.10-HDAC7-Flag cells, Coomassie gel, mass spectrometry

| Binder | binding [1] | binding [2] | binding [3] |
| --- | --- | --- | --- |
| Protein phosphatase 1 regulatory subunit 12A (Myosin phosphatase targeting subunit 1) (protein, mouse, UniProt Q9DBR7 1-1029, looked up) MKMADAKQKRNEQLKRWIGSETDLEPPVVKRQKTKVKFDDGAVFLAACSSGDTDEVLKLLHRGADINYANVDGLTALHQACIDDNVDMVKFLVENGANINQPDNEGWIPLHAAASCGYLDIAEFLIGQGAHVGAVNSEGDTPLDIAEEEAMEELLQNEVNRQGVDIEAARKEEERVMLRDARQWLNSGHISDVRHAKSGGTALHVAAAKGYTEVLKLLIQAGYDVNIKDYDGWTPLHAAAHWGKEEACRILVDNLCDMETVNKVGQTAFDVADEDILGYLEELQKKQTLLHSEKRDKKSPLIESTANMENNQPQKAFKNKETLIIEPEKNASRIESLEHEKADEEEEGKKDESSCSSEEDEEDDSESEAETDKTKPMASVSNAHTSSTQAAPAAVTAPTLSSNQGTPTSPVKKFPISTTKISPKEEERKDESPASWRLGLRKTGSYGALAEISASKEAQKEKDTAGVMRSASSPRLSSSLDNKEKEKDNKGTRLAYVTPTIPRRLASTSDIEEKENRESSSLRTSSSYTRRKWEDDLKKNSSINEGSTYHRSCSFGRRQDDLISCSVPSTTSTPTVTSAAGLQRSLPSSTSTAAKTPPGSSSAGTQSSTSNRLWAEDSTEKEKDSAPTAVTIPVAPTVVNAAAPSTTTLTTTTAGTVSEVRERRRSYLTPVRDEESESQRKARSRQARQSRRSTQGVTLTDLQEAEKTIGRSRSTRTREQENEEKEKEEKEKQDKEKQEEKKESEASREDEYKQKYSRTYDETYTRYRPVSTSSSSAPSSSSLSTLGSTLYASSQLNRPNSLVGITSAYSRGLAKENEREGEKKEEEKEGEDKSQPKSIRERRRPREKRRSTGVSFWTQDSDENEQERQSDTEDGSSKRETQTDSVSRYDSSSTSSSDRYDSLLGRSASYSYLEDRKPYSSRLEKDDSTDFKKLYEQILAENEKLKAQLHDTNMELTDLKLQLEKATQRQERFADRSQLEMEKRERRALERRISEMEEELKMLPDLKADNQRLKDENGALIRVISKLSK | binds | binds | binds |
| 14-3-3 protein beta/alpha (protein, UniProt Q9CQV8 1-246, looked up) MTMDKSELVQKAKLAEQAERYDDMAAAMKAVTEQGHELSNEERNLLSVAYKNVVGARRSSWRVISSIEQKTERNEKKQQMGKEYREKIEAELQDICNDVLELLDKYLILNATQAESKVFYLKMKGDYFRYLSEVASGENKQTTVSNSQQAYQEAFEISKKEMQPTHPIRLGLALNFSVFYYEILNSPEKACSLAKTAFDEAIAELDTLNEESYKDSTLIMQLLRDNLTLWTSENQGDEGDAGEGEN | – | binds | binds |
| 14-3-3 protein theta (protein, UniProt P68254 1-245, looked up) MEKTELIQKAKLAEQAERYDDMATCMKAVTEQGAELSNEERNLLSVAYKNVVGGRRSAWRVISSIEQKTDTSDKKLQLIKDYREKVESELRSICTTVLELLDKYLIANATNPESKVFYLKMKGDYFRYLAEVACGDDRKQTIENSQGAYQEAFDISKKEMQPTHPIRLGLALNFSVFYYEILNNPELACTLAKTAFDEAIAELDTLNEDSYKDSTLIMQLLRDNLTLWTSDSAGEECDAAEGAEN | – | binds | binds |
